Earlier results, collected in patent publication US20190091218A1 (priority 2016, published 2019).

Details: in vivo

Compound: O=C(O)COCCN1CCN([C@H](c2ccccc2)c2ccc(Cl)cc2)CC1 [levocetirizine]
- time to peak plasma level: 0.9 h
